In US7951914B2, “Genetically modified cyclic-nucleotide controlled ion channels” (Forschungszentrum Julich GmbH, priority 2001, dated 2011):

System: homooligomeric bovine α3 CNG channels
Test: Patch clamp electrophysiology of inside-out patches: activation of heterologously expressed CNG channels by cAMP and cGMP
Type: biochemical
Details: +100 mV; for Imax: maximum current, cAMP / Imin: minimum current, cAMP: FIG. 1B / 3B; for Imax: maximum current, cGMP / Imin: minimum current, cGMP: FIG. 2B / 4B
Excerpt: For this purpose, the corresponding nucleic acids were cloned into the expression vector pcDNA3.1 (Invitrogen) (see Methods). The expression constructs were then used to transform the cells of the human embryonic kidney cell line 293 (HEK293 cells) and the corresponding proteins were functionally expressed therein either transiently or stably (see Methods). The results of the studies are depicted in FIGS. 1-4. FIGS. 1-4 B depict the dependence of the average current on the cAMP concentration and cGMP concentration, respectively, in each case in the form of a dose-response relationship. The results of these measurements were used to calculate the sensitivity of the CNG channels to cAMP and cGMP. […] EMBO J., 13, 5040-5050. For electrophysiological characterization, the cells were transferred to glass slides which had been coated with poly L-lysine, on the day after transfection. The electrophysiological studies were then carried out on the following day. […] The electrophysiological characterization of the genetically modified CNG channels was carried out using the patch clamp technique under voltage clamping conditions. […] inside-out patches were excised from cells which stably expressed genetically modified or wild-type CNG channels. The bath solution containing different concentrations of cyclic nucleotides was used to flow over the membrane patches. Starting from a holding voltage of 0 mV, sudden voltage changes were applied to different test voltages between -100 mV and +100 mV at the patch with a step width of 20 mV. The currents were registered and analyzed using standard methods.

Molecule | Imax: maximum current, cAMP [pA] | Imin: minimum current, cAMP [pA] | Imax: maximum current, cGMP | Imin: minimum current, cGMP [pA]
T537M: bovine α3 CNG channel with methionine in place of threonine T537 (SEQ ID NO 4) (protein, UniProt Q03041 1-663, looked up, variant T537M) Cyclic nucleotide-gated …: MTEKANGVKSSPANNHNHHAPPAIKASGKDDHRASSRPQSAAADDTSSELQQLAEMDAPQQRRGGFRRIARLVGVLREWAYRNFREEEPRPDSFLERFRGPELHTVTTQQGDGKGDKDGEGKGTKKKFELFVLDPAGDWYYRWLFLIALPVLYNWCLLVARACFSDLQKGYYIVWLVLDYVSDVVYIADLFIRLRTGFLEQGLLVKDTKKLRDNYIHTMQFKLDVASIIPTDLIYFAVGIHNPEVRFNRLLHFARMFEFFDRTETRTSYPNIFRISNLILYILIIIHWNACIYYAISKSIGFGVDTWVYPNITDPEYGYLSREYIYCLYWSTLTLTTIGETPPPVKDEEYLFVIFDFLIGVLIFATIVGNVGSMISNMNATRAEFQAKIDAVKHYMQFRKVSKEMEAKVIRWFDYLWTNKKSVDEREVLKNLPAKLRAEIAINVHLSTLKKVRIFQDCEAGLLVELVLKLRPQVFSPGDYICRKGDIGKEMYIIKEGKLAVVADDGVTQYALLSAGSCFGEISILNIKGSKMGNRRMANIRSLGYSDLFCLSKDDLMEAVTEYPDAKRVLEERGREILMKEGLLDENEVAASMEVDVQEKLEQLETNMDTLYTRFARLLAEYTGAQQKLKQRITVLETKMKQNNEDDSLSDGMNSPEPPAEKP | 328 | 24 | 167 pA | 11
T537V: bovine α3 CNG channel with valine in place of threonine T537 (SEQ ID NO 6) (protein, Bovine) MTEKANGVKSSPANNHNHHAPPAIKASGKDDHRASSRPQSAAADDTSSELQQLAEMDAPQQRRGGFRRIARLVGVLREWAYRNFREEEPRPDSFLERFRGPELHTVTTQQGDGKGDKDGEGKGTKKKFELFVLDPAGDWYYRWLFLIALPVLYNWCLLVARACFSDLQKGYYIVWLVLDYVSDVVYIADLFIRLRTGFLEQGLLVKDTKKLRDNYIHTMQFKLDVASIIPTDLIYFAVGIHNPEVRFNRLLHFARMFEFFDRTETRTSYPNIFRISNLILYILIIIHWNACIYYAISKSIGFGVDTWVYPNITDPEYGYLSREYIYCLYWSTLTLTTIGETPPPVKDEEYLFVIFDFLIGVLIFATIVGNVGSMISNMNATRAEFQAKIDAVKHYMQFRKVSKEMEAKVIRWFDYLWTNKKSVDEREVLKNLPAKLRAEIAINVHLSTLKKVRIFQDCEAGLLVELVLKLRPQVFSPGDYICRKGDIGKEMYIIKEGKLAVVADDGVTQYALLSAGSCFGEISILNIKGSKMGNRRVANIRSLGYSDLFCLSKDDLMEAVTEYPDAKRVLEERGREILMKEGLLDENEVAASMEVDVQEKLEQLETNMDTLYTRFARLLAEYTGAQQKLKQRITVLETKMKQNNEDDSLSDGMNSPEPPAEKP | 181 | 11 | 1 389 pA | 13
